# Reference: PubChem BioAssay AID540275 (National Center for Advancing Translational Sciences (NCATS), 2011)
# Protein sequences, listed by entry. Tags and fused reporters are not part of them.
# UniProt Q8NER1, whole entry, looked up: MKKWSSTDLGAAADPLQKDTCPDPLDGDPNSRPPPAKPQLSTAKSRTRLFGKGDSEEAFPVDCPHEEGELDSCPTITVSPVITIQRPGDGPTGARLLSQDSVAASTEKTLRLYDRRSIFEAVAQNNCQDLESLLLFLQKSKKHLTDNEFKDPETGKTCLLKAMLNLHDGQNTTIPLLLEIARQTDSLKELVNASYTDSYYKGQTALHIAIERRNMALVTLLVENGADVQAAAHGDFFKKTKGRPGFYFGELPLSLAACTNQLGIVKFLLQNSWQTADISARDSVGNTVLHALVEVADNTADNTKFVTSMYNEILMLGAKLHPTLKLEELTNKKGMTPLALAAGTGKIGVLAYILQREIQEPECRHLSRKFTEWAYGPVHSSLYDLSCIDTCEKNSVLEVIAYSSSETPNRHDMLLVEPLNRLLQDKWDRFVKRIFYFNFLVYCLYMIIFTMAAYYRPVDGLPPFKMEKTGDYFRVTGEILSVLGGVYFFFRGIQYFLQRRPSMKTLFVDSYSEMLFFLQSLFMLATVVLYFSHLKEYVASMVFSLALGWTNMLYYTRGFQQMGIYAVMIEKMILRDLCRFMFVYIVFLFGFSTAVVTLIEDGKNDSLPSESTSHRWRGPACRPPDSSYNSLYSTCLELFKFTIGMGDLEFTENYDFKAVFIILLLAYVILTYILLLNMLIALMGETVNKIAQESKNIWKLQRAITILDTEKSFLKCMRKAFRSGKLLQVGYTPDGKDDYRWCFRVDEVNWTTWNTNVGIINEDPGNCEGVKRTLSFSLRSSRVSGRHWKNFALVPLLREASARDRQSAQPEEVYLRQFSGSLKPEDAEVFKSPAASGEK
# Values joined by “and” are separate entries in the source; they are usually repeats but may differ in a detail not shown here. Equal entries are not always repeated. Hit rate of the full screen: of about 320,000 compounds, about 620 (0.19%) were called active. Inconclusive means that the source gave no clear call. Such entries were picked first, then a sample of the others. Rule as the data show it: active = activation above about 80%; inconclusive = between about 30% and that limit; inactive = weaker than that.
# Target: Transient receptor potential cation channel subfamily V member 1 (Homo sapiens) (UniProt Q8NER1)
# Assay: HTS Assay for Compounds that Act as Agonists of the Vanilloid Receptor 1; also: 0% is about no effect
# Settings: TRPV1-expressing cells, Fluo-8 calcium influx, agonist mode; at 8.33 µM, stronger effect = higher value
# Procedure, shortened: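 TRPV1-expressing cells were cultured overnight at 35.5C and loaded with Fluo-8 calcium dye for 40 to 90 min at room temperature. After a 10 s baseline, compound was added and calcium influx was read kinetically for 3 min (ex 480/em 520 nm).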
row,SMILES,activation
1,CCN(CC)S(=O)(=O)c1ccc(NC(=O)CCC2CCCCC2)cc1,inconclusive: 40.6%
2,CCOC(=O)c1c(C)c(C(=O)N2CCCCCC2)c(C)n1CC,inactive: 8.11%
3,CC1CCN(c2c(NCC3CCC(C(=O)N4CCc5ccccc5C4)CC3)c(=O)c2=O)CC1 (configuration not stated),inactive: 13.8%
4,COc1ccc(NS(=O)(=O)c2cc(NC(=O)c3cnc(C)cn3)ccc2N2CCCCC2)cc1,active: 90.2%
5,O=C(COc1ccc(F)cc1Cl)Nc1ccc(N2CCOCC2)cc1N1CCOCC1,inconclusive: 40.5%
6,CCN(CC)CCNc1ncnc2c1[nH]c1ccc(OC)cc12,inactive: 0.421%
7,CCN1C(=S)N[C@@H](CCc2ccccc2)C(C(=O)OC)=C1C,inactive: 7.47% and inactive: -5.94%
8,CC(c1ccccc1)C1CC(=O)N(Cc2ccccc2)C1=O (configuration not stated),inconclusive: 30.3%
9,Cc1ccccc1N=Cc1cccc(O)c1O,inactive: 1.82%
10,O=C(c1ccc(CSc2nc3ccncc3[nH]2)cc1)N1CCN(c2cccc(Cl)c2)CC1,inactive: -0.948%
11,CCOc1ccc(CCNC(=O)CN2C(=O)CCSc3ccccc32)cc1OCC,inactive: -5.11%
12,COc1ccccc1N(C)S(=O)(=O)c1ccc(C(=O)NC2CCCCC2)cc1,inconclusive: 40.1%
13,CC1CCc2c(sc3ncnc(N4CCOCC4)c23)C1 (configuration not stated),inconclusive: 39.9%
14,CC(=O)N1CCC2(CC1)CC(=O)c1cc(OCC(=O)NCc3ccco3)ccc1O2,inactive: 0.651%
15,CCCNC(=O)COC(=O)c1ccccc1OCC(=O)Nc1ccc(Br)cc1,inconclusive: 46.7%
16,c1cc2c(cc1C1=Nn3c(nnc3C3CCCCC3)SC1)OCO2,inconclusive: 56%
17,CCOc1ccc(NCCC(=O)c2ccc3c(c2)OCO3)cc1,inconclusive: 40%
18,O=C(CSc1nc2ccccc2[nH]1)NCc1ccccc1,inconclusive: 41.9%
19,COc1ccc(OC)c(CN2CCC(CO)(CCOc3ccccc3)CC2)c1,inactive: -1.98%
20,COc1ccc(-c2onc3ccc(C(C)=O)cc23)cc1,inconclusive: 30.2%
21,O=c1[nH]c(N2CCN(c3ccccc3)CC2)nc2c1CCC2,inactive: 2.2%
22,CN(CC(=O)Nc1cc(Cl)cc(Cl)c1)Cc1cccs1,inconclusive: 33.7%
23,COc1ccc(C2=Nn3c(nnc3-c3cc(C)[nH]n3)SC2)cc1,inconclusive: 45.8%

row,SMILES,activation
1,O=C(NCCc1cccc(Cl)c1)c1cccc([N+](=O)[O-])c1,inconclusive: 47.1%
2,Cc1ccc(C(=O)Nc2ccc3c(c2)OCO3)cc1,inconclusive: 69.7%
3,O=C(COc1ccccc1Cl)c1ccc2c(c1)CCCC2,inactive: 17.5%
4,CCN1/C(=C/C=C/c2oc3ccc(-c4ccccc4)cc3[n+]2CC)Oc2ccc(-c3ccccc3)cc21,active: 105%
5,CC(C)Sc1nc2c(c(=O)[nH]c(=O)n2C)n1CCc1ccccc1,inactive: -0.239%
6,CCN(CC)c1ccc(NC(=S)NC(=O)c2ccco2)cc1,inconclusive: 38.7%
7,Cc1nnc(SCC(=O)NC(=O)Nc2ccc3c(c2)OCCO3)n1N,inactive: 0.926%
8,CCOC(=O)C1CCCN(c2nc3ccccc3nc2C(C#N)C(=O)OC(C)C)C1 (configuration not stated),inconclusive: 61.9%
9,N#Cc1cc([N+](=O)[O-])ccc1NC(=O)COC(=O)CC1CCCC1,inconclusive: 39.1%
10,Cc1cc2c(Nc3ccc(O)cc3)ncnc2s1,inconclusive: 35.5%
11,Cc1nc(CS(=O)(=O)c2ccc(Cl)cc2)cc(N2CCOCC2)n1,inactive: 5.81%
12,Cn1c(=O)cc(OCCCC(=O)N2CCN(c3ccccc3)CC2)c2ccccc21,inconclusive: 46.6%
13,O=C(NC1CCCc2ccccc21)c1ccc2c(c1)OCO2 (configuration not stated),inconclusive: 44.2%
14,O=C(CSc1ccc2ccccc2c1)NCCc1ccc(O)c(O)c1,inconclusive: 67.4%
15,Cc1ccc2cc(CN(Cc3ccco3)C(=S)NCC3CCCO3)c(=O)[nH]c2c1C (configuration not stated),inactive: 20%
16,Cc1ccccc1OCCCC(=O)Nc1ccc(Br)cc1,inconclusive: 47.4%
17,Cc1ccc(NC2CCCN(C(=O)c3ccccc3N3CCOCC3)C2)cc1C (configuration not stated),inconclusive: 33.2%
18,COc1ccc(/C=N/NC(=O)c2ccc(CN3c4cccc5cccc(c45)S3(=O)=O)cc2)cc1,inactive: -3.34%
19,COc1cc2c(cc1OC)CN(CC(=O)Nc1ccc(C#N)cc1)CC2,inconclusive: 30.8%
20,CC(C)(C)C(=O)Nc1sc2c(c1-c1nc3ccccc3[nH]1)CCCC2,inconclusive: 68.3%
21,CC(C)(C)n1nnnc1C(c1ccccc1F)N(Cc1ccco1)CC1CCCO1 (configuration not stated),inconclusive: 36.1%
22,O=C(COc1ccc(Cl)cc1)Nc1ccccc1Cl,inconclusive: 34.9%
23,CN(Cc1nc(Cc2ccccc2F)no1)CC1(N2CCOCC2)CCCCC1,inconclusive: 37.9%

# Five entries from above in a different format:
row	SMILES	activation
5	CC(C)Sc1nc2c(c(=O)[nH]c(=O)n2C)n1CCc1ccccc1	inactive: -0.239%
12	Cn1c(=O)cc(OCCCC(=O)N2CCN(c3ccccc3)CC2)c2ccccc21	inconclusive: 46.6%
18	COc1ccc(/C=N/NC(=O)c2ccc(CN3c4cccc5cccc(c45)S3(=O)=O)cc2)cc1	inactive: -3.34%
20	CC(C)(C)C(=O)Nc1sc2c(c1-c1nc3ccccc3[nH]1)CCCC2	inconclusive: 68.3%
22	O=C(COc1ccc(Cl)cc1)Nc1ccccc1Cl	inconclusive: 34.9%

# The results go on.

row,SMILES,activation
1,CCOC(=O)C1=C(COC(=O)C(CC)c2ccccc2)NC(=O)NC1C (configuration not stated),inconclusive: 37.1%
2,CCOc1cc(Br)c(CC(=O)NC2CCCCCC2)cc1OCC,inconclusive: 35.4%
3,COc1ccccc1C1CCN(Cc2ccc3ccccc3c2)CC1,inactive: 1.92%
4,CC(NC(=O)Nc1ccc(Cl)cc1)c1ccccc1 (configuration not stated),inconclusive: 56%
5,COc1cccc(/C=C2\SC(N3CCCC(C)C3)=NC2=O)c1OC (configuration not stated),inconclusive: 62.5%
6,O=C(COC(=O)c1cc(=O)[nH]c2ccccc12)c1ccccc1,inactive: 3.83%
7,Fc1ccc(Nc2c3c(nc4ccccc24)CCC3)cc1,inconclusive: 39.4%
8,COc1ccc(CC(=O)Nc2cccc(S(=O)(=O)N3CCCCCC3)c2)cc1OC,inconclusive: 70.7%
9,CC1CC(N(C(=O)C2CC2)c2ccccc2)c2ccccc2N1C(=O)C1CC1 (configuration not stated),inconclusive: 37.6%
10,CC(=O)NCCOc1nc(N(C)C)nc(N2CCCCC2)n1,inconclusive: 49.8%
11,Cc1csc(N(C(=O)CCNC(=O)c2ccc([N+](=O)[O-])cc2)c2ccccc2)n1,inconclusive: 48.6%
12,COc1ccc(N(CC(=O)NCc2cccs2)S(=O)(=O)c2cccc(C)c2)cc1,inactive: 15.8%
13,CS(=O)(=O)c1cccc(C(=O)Nc2nnc(C3=COCCO3)o2)c1,inactive: -5.52%
14,COc1ccc(CCNc2nc(-c3sc(C)nc3C)cs2)cc1OC,inactive: -12.2%
15,O=C(c1ccc(N2CCN(C(=O)c3ccc(F)c(F)c3)CC2)cc1)c1cccc(F)c1,inconclusive: 62.7%
16,CCc1ccc2[nH]c(C(=O)Nc3ccc(C)c(F)c3)cc2c1,inconclusive: 57.4%
17,CCCn1c2c(c(=N)c3c1CCC3)CCCC2,inactive: -0.903%
18,O=C(NCC1CCCO1)c1ccccc1NC(=O)c1cccc2ccccc12 (configuration not stated),inconclusive: 34.4%
19,COc1ccc(C)cc1NC(=O)COC(=O)CCC(=O)c1cccs1,inactive: 13.1%
20,CCOP(=O)(c1ccccc1)c1nc(-c2ccccc2C)oc1N1CCCCC1 (configuration not stated),inconclusive: 37.5%
21,COc1ccc(Cl)cc1NC(=O)Nc1cc(C)on1,inconclusive: 57.6%
22,CCN(CC)c1ccc(/C=N/NC(=O)c2ccoc2C)c(O)c1,inconclusive: 36.8%
23,Cc1ccc(/C=N/n2c(-c3ccc(Cl)cc3)n[nH]c2=S)o1,inactive: 3%

row,SMILES,activation
1,O=C(CC(c1ccccc1)c1ccccc1)Nc1ccc(Cl)cn1,inconclusive: 39.6%
2,Cc1nc(C)c(C(=O)N2CCCC(C(=O)c3ccc4ccccc4c3)C2)s1 (configuration not stated),inactive: 8.11%
3,COc1ccccc1Cn1c(=S)[nH]c2cc(C(=O)NCC(OC)OC)ccc2c1=O,inactive: 5.68%
4,Cc1ccc(C)c(NC(=S)NNc2ccc(F)cc2F)c1,inconclusive: 48.7%
5,O=C(CC1CCCC1)N1CCCC(Nc2ccc(F)cc2)C1 (configuration not stated),inactive: 2.58%
6,Clc1ccc(/C=C/c2nc3ccccc3[nH]2)cc1,inconclusive: 70.3%
7,Oc1ccc2ccccc2c1-c1sc(Nc2ccccc2)n[n+]1-c1ccc(F)cc1,inactive: 5.96%
8,O=C(c1ccccn1)N1CCN(c2cccc(C(F)(F)F)c2)CC1,inconclusive: 63.9%
9,Cc1nc2ccccc2nc1SCC(=O)N1CCC(C)CC1,inconclusive: 43.6%
10,CCCN1C(=O)CN(C2CCCCCC2)C(=O)C1c1ccc(C)cc1 (configuration not stated),inconclusive: 52.2%
11,NC(=O)NNc1ncc(C(F)(F)F)cc1Cl,inactive: -2.32%
12,CCOc1ccccc1CN1CCC(CO)(CCOc2ccccc2)CC1,inactive: 1.26%
13,CC(=O)c1sc(NC(=O)C2(F)C(F)(F)C(F)(F)C(F)(F)C(F)(F)C2(F)F)nc1C,inactive: -1.53%
14,O=C(NCCc1cccc(Cl)c1)c1cccs1,inconclusive: 59.6%
15,O=C(NCc1cccnc1)c1ccc(COc2ccccc2Br)cc1,inconclusive: 58.3%
16,CC(NC(=O)C1CCN(S(=O)(=O)c2cc([N+](=O)[O-])ccc2Cl)CC1)c1ccccc1 (configuration not stated),inconclusive: 46.8%
17,C/C(=N\NC(=O)CCCCCNC(=O)c1ccccc1)c1ccccc1O,inactive: -0.0549%
18,CCCOc1ccc(-c2cc(C(=O)NCC3CCCO3)c3ccccc3n2)cc1 (configuration not stated),inconclusive: 31.2%
19,CCOC(=O)c1ccc2c(c1)N(C)C(=O)c1ccccc1S2,inactive: 3.71%
20,COc1cnn(Cc2ccccc2)c(=O)c1SCc1ccccc1,inconclusive: 53.5%
21,O=C(Nc1ccc(F)cc1Cl)C1CCN(C(=O)Nc2ccccc2)CC1,inconclusive: 52.2%
22,CC(OC(=O)CCCN=C1NS(=O)(=O)c2ccccc21)C(=O)Nc1ccccc1F (configuration not stated),inactive: 0.609%
23,O=C(Nc1cccc(Cl)c1)c1ccc(F)c(S(=O)(=O)NCc2cccs2)c1,inactive: 1.18%
